In article PMC7819943, “Rice protein-binding microarrays: a tool to detect cis-acting elements near promoter regions in rice” one finds binding signal data, which are given here for 54 sequences.

Chains of the proteins cited; added tags and fusions are not shown.
UniProt Q0JBA9, entry or part of it: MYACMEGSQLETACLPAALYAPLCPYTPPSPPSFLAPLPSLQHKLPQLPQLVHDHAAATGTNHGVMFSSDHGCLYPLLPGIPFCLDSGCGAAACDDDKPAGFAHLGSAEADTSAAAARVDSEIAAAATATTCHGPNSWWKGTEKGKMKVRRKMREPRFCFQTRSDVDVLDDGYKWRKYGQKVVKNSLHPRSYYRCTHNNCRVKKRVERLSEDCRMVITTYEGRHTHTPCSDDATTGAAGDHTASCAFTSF

Some of the results follow.

The target in this experiment is OsWRKY34 (Oryza sativa, UniProt Q0JBA9 1-250). Description: protein-binding microarray (RPBM); PBS, 2% BSA, 51.3 ng/ul salmon testes DNA, 50 uM zinc acetate, 200 nM TF, 25 C, 1 h; high values mean tight binding. Conditions: protein: recombinant; tags: N-terminal polyhistidine and DsRed monomer fusion (pET32a); label: CyDye5-dUTP incorporated in the synthesized complementary strand; 3' TTTTT single-stranded linker to array surface; dsDNA, one strand shown. A digest of the protocol: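 Per-feature fluorescence intensity (arbitrary units), read on an Axon 4000B scanner, is the binding signal. Transcription factors carrying an N-terminal polyhistidine tag and DsRed fusion were expressed in E. coli BL21-CodonPlus and purified on Ni–NTA. A custom Agilent array, made double-stranded by primer extension with Cy5-dUTP and blocked with 2% BSA, was incubated with 200 nM protein in PBS, 2% BSA, salmon testes DNA and 50 µM zinc acetate at 25 °C for 1 h and then washed.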
For “CCTCTCATCTCTCTGTTCTTCCAATCCTAGTTTCTGTTCTCGGAGTCACCTAGTGCAG”, the binding signal was 8040 fluorescence intensity (a.u.).

As for “CCCCTAGCGCCACCCGAGCCGTCGCCCTCTTCGTCGCCAACGGAGTCACCTAGTGCAG”, the binding signal was 8720 fluorescence intensity (a.u.).

“TTAAAACACTTTTCATGTTTTTGGTGCCTCTTGTGTTTTGCGGAGTCACCTAGTGCAG”: the binding signal was 10100 fluorescence intensity (a.u.).

Regarding “TTCCATGTTTCCGATAGCTCGCACCACCAAGACATCCTCGCGGAGTCACCTAGTGCAG”, the binding signal is 9930 fluorescence intensity (a.u.).

In the case of “TTGTTTGGTTGGGACACATGTGAATTTTGGTAGGATGGGGCGGAGTCACCTAGTGCAG”, the binding signal is 12100 fluorescence intensity (a.u.).

In the case of “CCTTCGCCGAGCTCCCTATATATCGCCGTCGTCTCGCACTCGGAGTCACCTAGTGCAG”, the binding signal was 9330 fluorescence intensity (a.u.).

As for “CTCGCTCTTCCGGCATTCTACCGTGAGAGGACATCACGCTCGGAGTCACCTAGTGCAG”, the binding signal was 9420 fluorescence intensity (a.u.).

Turning to “GTTATTCATTATTTATATTCCCAAGGTTTGACTTAAACATCGGAGTCACCTAGTGCAG”, the binding signal was 10100 fluorescence intensity (a.u.).

On to “TCTGCTCCTTACCTCCCCGGCCCCTGCTCCATTTCGCTGCCGGAGTCACCTAGTGCAG”, for which the binding signal is 13000 fluorescence intensity (a.u.).

With “CAAAACTGTCTTTACACAGCCCCTAACACCTATGTTATGTCGGAGTCACCTAGTGCAG”, the binding signal was 8360 fluorescence intensity (a.u.).

As to “CTCTGAAATCCAGCTTCTCCAGCTTCTGGCTTTTTAGTTCCGGAGTCACCTAGTGCAG”, the binding signal is 11000 fluorescence intensity (a.u.).

“GTCCCACTTTTTTTTTTATTTTTGTGTGTGAAACTGATATCGGAGTCACCTAGTGCAG”: the binding signal is 10700 fluorescence intensity (a.u.).

Take “TCCTTGCGCCGCCGCCGCCTTGCCTTACCTCCCCGGCTTCCGGAGTCACCTAGTGCAG”: the binding signal is 8570 fluorescence intensity (a.u.).

As for “AGCTTATAAATAGTGCTGCCTAGCTTCTCTCTCTCTCAATCGGAGTCACCTAGTGCAG”, the binding signal is 8090 fluorescence intensity (a.u.).

On to “GCTTCTTCTCGGTTTGTTCGTTCCTTGTGGTTGAGAGTGACGGAGTCACCTAGTGCAG”, for which the binding signal was 12300 fluorescence intensity (a.u.).

With “GTAGTTTGTGTGCGTGTTGTCGGCGTATGCATTTTAACTACGGAGTCACCTAGTGCAG”, the binding signal is 8780 fluorescence intensity (a.u.).

As to “TTCATGTCGCAGTCCGATTCACACGCCGACCACGACGAGCCGGAGTCACCTAGTGCAG”, the binding signal is 9410 fluorescence intensity (a.u.).

As to “CGGATAATTTTTCAATCTCTCGGTGATAGATGGCATACCCCGGAGTCACCTAGTGCAG”, the binding signal was 8180 fluorescence intensity (a.u.).

On to “ACACAGGCAGCAGTAGCACCTCGATCCATCTACCATTTTACGGAGTCACCTAGTGCAG”, for which the binding signal was 10200 fluorescence intensity (a.u.).

Regarding “ACATACCAATCCGTCTGCATTGCCACAACCAACACACATTCGGAGTCACCTAGTGCAG”, the binding signal was 12400 fluorescence intensity (a.u.).

Turning to “TTTGGGTGGGTGGCTGCTGCAACATCGATGTCACTATGCCCGGAGTCACCTAGTGCAG”, the binding signal was 9900 fluorescence intensity (a.u.).

Regarding “CGGTCGTCCCTGCTGGCAATTTACTTGTGTGTTTGTGTGTCGGAGTCACCTAGTGCAG”, the binding signal is 10800 fluorescence intensity (a.u.).

As to “TGCCTTCCTTAACTCCTGTGTTAATTCGACCACAACTTTACGGAGTCACCTAGTGCAG”, the binding signal was 8030 fluorescence intensity (a.u.).

Regarding “ACTACTTTTGACTTAGCTGTCCTTCATTTCTGTCAGTCCTCGGAGTCACCTAGTGCAG”, the binding signal was 9620 fluorescence intensity (a.u.).

For the sequence “GTGCCGCATGCTGACCCTTGACTTTGACTGACAGTGACCGCGGAGTCACCTAGTGCAG”, the binding signal is 9300 fluorescence intensity (a.u.).

In the case of “TCCTGAACTGTTGCTCTCGGTTTCTGCTTACAAGGTTTTCCGGAGTCACCTAGTGCAG”, the binding signal is 9750 fluorescence intensity (a.u.).

For “TCGTCGATGGCTTCCACCCGGACCAGCTCCCGGTCCACCTCGGAGTCACCTAGTGCAG”, the binding signal is 8080 fluorescence intensity (a.u.).

With “TCCCACCCGCACGGAATCCAAGTCCCATCTAAATCACGCACGGAGTCACCTAGTGCAG”, the binding signal was 8280 fluorescence intensity (a.u.).

As to “CACTCTCATCGCCGATAGCACGGAGCTTCTGAATCTTTCTCGGAGTCACCTAGTGCAG”, the binding signal was 8870 fluorescence intensity (a.u.).

For the sequence “CCCCGTCAACATCATCATCTTTATTAATTCTCTTTTGGCACGGAGTCACCTAGTGCAG”, the binding signal is 8170 fluorescence intensity (a.u.).

With “GTGGGGTTGGGTTACGTGGTGGAGCTGAGCCCGGCGGCGCCGGAGTCACCTAGTGCAG”, the binding signal was 11600 fluorescence intensity (a.u.).

Regarding “TGCAGTTCGTTGTCACAAATCATATATTTTTCCATGGCACCGGAGTCACCTAGTGCAG”, the binding signal was 8900 fluorescence intensity (a.u.).

In the case of “GTTTTGTCCTTCTCATATTTTCACAAACTATACCCACAAGCGGAGTCACCTAGTGCAG”, the binding signal is 11500 fluorescence intensity (a.u.).

As to “ACCACTAACTGAAAACGACAACACAACTACTACTAACCTACGGAGTCACCTAGTGCAG”, the binding signal is 8260 fluorescence intensity (a.u.).

Turning to “GGAGGGGAGGATTAATTTCTTCTTTTTCTTAATTATTTTGCGGAGTCACCTAGTGCAG”, the binding signal was 9990 fluorescence intensity (a.u.).

Turning to “TGTCGTTGTGTTATCTATCTCCAATCAATTTTCATGGAAACGGAGTCACCTAGTGCAG”, the binding signal was 8070 fluorescence intensity (a.u.).

With “TATTGCTGCTATTATCGACCTGGAATTCTTAACTATTCTTCGGAGTCACCTAGTGCAG”, the binding signal was 9610 fluorescence intensity (a.u.).

For “CATCCCACTGCTTTGCTTTCTCCTGATGCATGATCTCTTTCGGAGTCACCTAGTGCAG”, the binding signal is 9900 fluorescence intensity (a.u.).

“TCCTATGTTTTTCCTGCGGTCCAATCAAACGGTCATTCTTCGGAGTCACCTAGTGCAG”: the binding signal was 12300 fluorescence intensity (a.u.).

For the sequence “CACTTACAGCTGGACCCTATGATGCATGCATTGCATACCACGGAGTCACCTAGTGCAG”, the binding signal is 8370 fluorescence intensity (a.u.).

As to “TAGTTCTAGCTGCTGTTCTTGAATCCTTTTATCCACGCTCCGGAGTCACCTAGTGCAG”, the binding signal is 8530 fluorescence intensity (a.u.).

For “AACTCTTTTCTTGTTGCTTCATCGCTTAAAATTTCGCAAACGGAGTCACCTAGTGCAG”, the binding signal is 9220 fluorescence intensity (a.u.).

For the sequence “GCCCGGACCATCACACCCAATCGTGGCCGTCCACACCTCCCGGAGTCACCTAGTGCAG”, the binding signal was 8460 fluorescence intensity (a.u.).

Regarding “CGTGTGCCCTATCTCGTTCGTATCAGGCGTGCATCCAAAGCGGAGTCACCTAGTGCAG”, the binding signal was 9570 fluorescence intensity (a.u.).

With “GTGTCTCTCTTCATGCACTCAGTATCCTTCTCATATCATTCGGAGTCACCTAGTGCAG”, the binding signal is 10400 fluorescence intensity (a.u.).

For the sequence “GCTGCATTATCTCCTCTCTTCATAATCAGCTGCATGTCTTCGGAGTCACCTAGTGCAG”, the binding signal is 8700 fluorescence intensity (a.u.).

“AGTCTTGCCTTCCAGACTGCTCTGTCCTGGTGTTGCTGTACGGAGTCACCTAGTGCAG”: the binding signal was 8980 fluorescence intensity (a.u.).

“AGTTTTGGTTGAATCGATCTGAGCTGTTTGGTTGGGTTTCCGGAGTCACCTAGTGCAG”: the binding signal was 12400 fluorescence intensity (a.u.).

“AGGAGGCAAGGAACAAGAATCTCTTTCTCTACACCATTTACGGAGTCACCTAGTGCAG”: the binding signal is 8280 fluorescence intensity (a.u.).

Regarding “CCTCACGCAATTCCACAACTGCTGCTCCCACCCTCATCAGCGGAGTCACCTAGTGCAG”, the binding signal was 9580 fluorescence intensity (a.u.).

In the case of “ACAGGAAGGAATAAGGGCAGGGTTGGGTTGGGCCATGTAACGGAGTCACCTAGTGCAG”, the binding signal was 14700 fluorescence intensity (a.u.).

With “ACATACATGCTTGTTTTGCGCTCCGAAGGCACCCACTCACCGGAGTCACCTAGTGCAG”, the binding signal was 11500 fluorescence intensity (a.u.).

Take “GTGATGCTGCTATTATACTTGCGAGATACTACTATTTTGTCGGAGTCACCTAGTGCAG”: the binding signal is 9370 fluorescence intensity (a.u.).

Consider “ACTACCATTTGTACTGTGCTTCTTCAGATTTCAAACTCCCCGGAGTCACCTAGTGCAG”, for which the binding signal is 8230 fluorescence intensity (a.u.).
